These are yes or no findings as the source states them, for the method shown. Binding seen in cells or lysates may run through a third protein. Binding calls can cover weak binding; strength is not graded here. For some assays here: Where a sequence is shown, tags or fusion partners need not be part of it.
How the values were obtained:
[1] = target: T1, V5-tagged Imd full length (Drosophila) (UniProt Q7K4Z4); assay: co-IP; S2 cells cotransfected with USP2-Myc and V5-tagged Imd full length or truncated constructs; lysates precipitated with anti-V5 or anti-Myc, blotted with anti-Myc or anti-V5
T1 sequence: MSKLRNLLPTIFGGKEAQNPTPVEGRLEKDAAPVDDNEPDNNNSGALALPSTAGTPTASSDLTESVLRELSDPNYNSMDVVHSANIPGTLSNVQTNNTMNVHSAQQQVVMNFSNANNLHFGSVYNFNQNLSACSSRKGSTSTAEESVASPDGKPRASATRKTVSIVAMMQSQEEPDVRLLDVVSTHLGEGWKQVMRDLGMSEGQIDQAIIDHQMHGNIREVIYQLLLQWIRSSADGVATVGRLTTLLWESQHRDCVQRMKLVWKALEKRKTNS

Amino acid sequences for entries named in this document (tags omitted). A change or cut given only in a name is not applied to a line headed by its entry.
UniProt Q8IQ27: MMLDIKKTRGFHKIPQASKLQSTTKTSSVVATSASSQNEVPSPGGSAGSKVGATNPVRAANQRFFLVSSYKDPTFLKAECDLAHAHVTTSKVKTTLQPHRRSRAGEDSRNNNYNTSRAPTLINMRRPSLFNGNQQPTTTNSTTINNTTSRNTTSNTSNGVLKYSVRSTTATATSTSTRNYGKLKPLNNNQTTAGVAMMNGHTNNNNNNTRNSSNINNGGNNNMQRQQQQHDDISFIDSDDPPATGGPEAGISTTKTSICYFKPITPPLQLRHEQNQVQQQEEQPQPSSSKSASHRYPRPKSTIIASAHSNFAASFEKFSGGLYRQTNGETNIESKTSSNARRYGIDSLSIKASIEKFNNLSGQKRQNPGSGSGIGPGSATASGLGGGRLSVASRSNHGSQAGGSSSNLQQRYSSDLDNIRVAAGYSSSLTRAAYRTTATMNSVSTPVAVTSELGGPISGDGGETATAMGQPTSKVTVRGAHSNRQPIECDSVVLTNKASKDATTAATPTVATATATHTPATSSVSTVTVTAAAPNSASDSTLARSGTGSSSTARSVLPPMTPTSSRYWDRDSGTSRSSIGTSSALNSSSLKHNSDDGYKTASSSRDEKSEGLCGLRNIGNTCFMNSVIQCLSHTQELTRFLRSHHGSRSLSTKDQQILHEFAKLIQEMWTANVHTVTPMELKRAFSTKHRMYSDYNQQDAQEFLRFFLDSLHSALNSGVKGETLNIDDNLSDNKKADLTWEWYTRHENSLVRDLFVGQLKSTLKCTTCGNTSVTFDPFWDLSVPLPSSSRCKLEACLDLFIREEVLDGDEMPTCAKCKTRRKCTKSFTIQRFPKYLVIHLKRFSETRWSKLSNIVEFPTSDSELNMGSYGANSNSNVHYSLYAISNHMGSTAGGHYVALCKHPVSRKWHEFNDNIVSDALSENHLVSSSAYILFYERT
UniProt O18413: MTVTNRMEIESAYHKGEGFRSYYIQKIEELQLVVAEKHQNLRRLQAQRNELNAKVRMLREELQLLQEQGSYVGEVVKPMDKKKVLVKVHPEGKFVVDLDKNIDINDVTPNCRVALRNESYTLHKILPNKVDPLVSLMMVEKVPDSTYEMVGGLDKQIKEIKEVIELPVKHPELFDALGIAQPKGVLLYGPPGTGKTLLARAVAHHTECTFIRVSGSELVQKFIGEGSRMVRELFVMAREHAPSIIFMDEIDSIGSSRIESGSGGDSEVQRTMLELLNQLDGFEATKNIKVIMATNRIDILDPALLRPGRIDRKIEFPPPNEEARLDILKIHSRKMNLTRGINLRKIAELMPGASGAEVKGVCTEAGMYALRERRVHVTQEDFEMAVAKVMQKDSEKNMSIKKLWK

[2] = target: Myc tagged full length USP2 (Drosophila) (UniProt Q8IQ27); assay: co-IP; S2 cells cotransfected with pAc-USP2-Myc and either pAc-Imd or a control empty plasmid; anti-Myc IP, blot for endogenous Pros45

binding [1] | binding [2] | Substance
binds | – | Myc tagged full length USP2 (from UniProt Q8IQ27-2) (enzyme)
– | binds | proteasomal subunit 8 (Pros45) (from UniProt O18413 1-405)

Source: article PMC4140012
